Experimental data reported in article doi:10.1101/2024.11.19.624261.
Results are given in words; binding and its absence hold for the method and conditions named. In cells and extracts the contact can be indirect. These calls come from enrichment with a bait or labelling near it, and not all partners need be listed. Sequences can lack the tags named with a protein.

By UniProt entry, the sequences of proteins in these tests, tags left out.
UniProt Q3URK3: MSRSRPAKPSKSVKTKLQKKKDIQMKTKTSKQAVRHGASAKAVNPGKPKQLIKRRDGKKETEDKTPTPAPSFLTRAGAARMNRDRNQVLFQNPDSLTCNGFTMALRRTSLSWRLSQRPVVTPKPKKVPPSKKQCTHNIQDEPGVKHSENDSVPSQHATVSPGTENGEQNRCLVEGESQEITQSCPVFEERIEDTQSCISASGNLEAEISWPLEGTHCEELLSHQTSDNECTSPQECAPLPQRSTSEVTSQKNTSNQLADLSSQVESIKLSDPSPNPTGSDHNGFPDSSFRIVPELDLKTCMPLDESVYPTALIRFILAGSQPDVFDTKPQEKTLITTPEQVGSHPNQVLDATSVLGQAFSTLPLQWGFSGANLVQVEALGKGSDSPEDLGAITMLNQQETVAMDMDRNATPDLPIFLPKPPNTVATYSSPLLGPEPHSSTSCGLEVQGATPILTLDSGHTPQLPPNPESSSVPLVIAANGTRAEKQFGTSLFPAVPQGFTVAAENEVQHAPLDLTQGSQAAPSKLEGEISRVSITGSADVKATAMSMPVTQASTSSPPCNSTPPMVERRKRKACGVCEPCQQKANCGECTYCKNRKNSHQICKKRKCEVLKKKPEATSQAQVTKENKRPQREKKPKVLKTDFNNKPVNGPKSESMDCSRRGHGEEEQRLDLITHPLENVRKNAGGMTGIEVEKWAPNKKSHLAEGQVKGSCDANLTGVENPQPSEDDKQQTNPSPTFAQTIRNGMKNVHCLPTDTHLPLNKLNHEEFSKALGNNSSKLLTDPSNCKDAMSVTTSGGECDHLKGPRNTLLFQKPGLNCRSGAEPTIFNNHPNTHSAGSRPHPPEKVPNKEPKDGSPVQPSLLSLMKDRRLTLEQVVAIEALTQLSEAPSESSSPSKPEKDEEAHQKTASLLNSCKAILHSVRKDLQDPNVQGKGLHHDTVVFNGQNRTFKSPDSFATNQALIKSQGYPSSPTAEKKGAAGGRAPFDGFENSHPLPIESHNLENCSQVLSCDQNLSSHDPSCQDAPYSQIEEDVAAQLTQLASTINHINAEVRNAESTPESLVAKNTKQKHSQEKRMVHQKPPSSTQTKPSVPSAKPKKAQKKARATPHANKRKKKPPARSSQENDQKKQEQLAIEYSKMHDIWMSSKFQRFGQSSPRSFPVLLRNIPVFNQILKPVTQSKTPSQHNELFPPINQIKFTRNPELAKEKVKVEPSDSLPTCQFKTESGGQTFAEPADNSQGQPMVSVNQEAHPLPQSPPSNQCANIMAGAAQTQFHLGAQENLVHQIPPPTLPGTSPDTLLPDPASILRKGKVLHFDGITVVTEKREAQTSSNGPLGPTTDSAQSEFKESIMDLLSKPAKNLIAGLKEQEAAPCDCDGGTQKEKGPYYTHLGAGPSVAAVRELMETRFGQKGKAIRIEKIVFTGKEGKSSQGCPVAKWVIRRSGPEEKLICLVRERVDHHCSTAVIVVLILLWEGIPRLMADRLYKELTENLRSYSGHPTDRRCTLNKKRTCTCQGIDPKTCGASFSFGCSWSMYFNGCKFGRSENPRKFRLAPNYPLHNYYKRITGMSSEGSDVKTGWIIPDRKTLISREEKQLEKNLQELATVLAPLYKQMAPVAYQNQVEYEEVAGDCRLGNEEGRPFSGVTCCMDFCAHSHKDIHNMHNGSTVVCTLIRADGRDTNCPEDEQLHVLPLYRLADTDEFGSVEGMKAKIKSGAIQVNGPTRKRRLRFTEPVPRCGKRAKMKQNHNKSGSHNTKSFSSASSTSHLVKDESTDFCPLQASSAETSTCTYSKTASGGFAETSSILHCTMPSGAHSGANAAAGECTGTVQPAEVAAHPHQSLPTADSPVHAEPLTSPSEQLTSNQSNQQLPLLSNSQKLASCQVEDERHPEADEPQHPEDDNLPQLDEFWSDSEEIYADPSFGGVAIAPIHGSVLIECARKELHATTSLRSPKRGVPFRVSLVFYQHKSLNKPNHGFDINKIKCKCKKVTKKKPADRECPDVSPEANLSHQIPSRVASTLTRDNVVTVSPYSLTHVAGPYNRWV
UniProt Q921E6: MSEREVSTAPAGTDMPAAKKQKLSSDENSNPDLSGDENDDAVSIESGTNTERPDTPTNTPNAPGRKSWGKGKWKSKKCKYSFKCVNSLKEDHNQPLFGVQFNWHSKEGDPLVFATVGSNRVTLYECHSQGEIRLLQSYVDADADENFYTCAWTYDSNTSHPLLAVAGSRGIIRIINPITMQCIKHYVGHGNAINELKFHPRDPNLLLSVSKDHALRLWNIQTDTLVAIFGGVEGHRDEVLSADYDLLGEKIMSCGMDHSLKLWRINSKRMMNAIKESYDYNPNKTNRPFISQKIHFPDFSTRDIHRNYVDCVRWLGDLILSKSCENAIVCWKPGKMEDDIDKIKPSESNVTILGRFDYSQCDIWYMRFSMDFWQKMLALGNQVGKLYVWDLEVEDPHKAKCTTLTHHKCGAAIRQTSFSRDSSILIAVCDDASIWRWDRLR

T1: FLAG-tagged form of LIN28A (UniProt Q8K3Y3)
T1 sequence: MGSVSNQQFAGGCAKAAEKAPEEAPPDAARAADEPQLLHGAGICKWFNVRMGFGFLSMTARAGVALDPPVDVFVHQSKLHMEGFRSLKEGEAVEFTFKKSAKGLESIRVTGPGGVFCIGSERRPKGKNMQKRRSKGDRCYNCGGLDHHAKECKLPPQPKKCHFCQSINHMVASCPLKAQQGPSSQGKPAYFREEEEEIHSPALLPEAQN


Molecular target: T1, FLAG-tagged form of LIN28A
Experiment: affinity purification with mass spectrometry

| binding | Molecule |
| --- | --- |
| binds | 5-methylcytosine ten-eleven translocation dioxygenase (TET1) (from UniProt Q3URK3 1-2039) |
| binds | EED (embryonic ectoderm development) (from UniProt Q921E6 1-441) |
| binds | AEBP2 (adipocyte enhancer-binding protein 2) (protein, UniProt Q9Z248 1-504) MAAALADMADLEELSRLSPLSPGSPGPAARGRAEPPEEEEEEDDEEAEAEAVAALLLNGGAGGGAGGGEAETMSEPSPESASQAGGDEDEDEEDDEDEGSSSGGAEEESSAESLVGSSSGGCSGDETRSLSPGAASSSSGDGDGKEGLEEPKGPRGGPGGPGSSGGGSSSSSVVSSGGDEGYGTGGGGSSATSGGRRGSLEMSSDGEPLSRMDSEDSISSTLMDIDSTISSGRSTPAMMNGQGSTTASSKHIAYNCCWDQCQACFNSSPDLADHIRSIHVDGQRGGVFVCLWKGCKVYNTPSTSQSWLQRHMLTHSGDKPFKCVVGGCNASFASQGGLARHVPTHFSQQNSSKVSSQPKAKEESPSKAGMNKRRKLKNKRRRSLPRPHDFFDAQTLDAIRHRAICFNLSAHIESLGKGHSVVFHSTVIAKRKEESGKIKLLLHWMPEDILPDVWVNESERHQLKTKVVHLSKLPKDTALLLDPNIYRTMPQKRLKRFDILNFPR |
